Source: publication doi:10.1101/2022.12.16.520750

Protein sequences, listed by entry. Tags and fused reporters are not part of them.
UniProt Q07157: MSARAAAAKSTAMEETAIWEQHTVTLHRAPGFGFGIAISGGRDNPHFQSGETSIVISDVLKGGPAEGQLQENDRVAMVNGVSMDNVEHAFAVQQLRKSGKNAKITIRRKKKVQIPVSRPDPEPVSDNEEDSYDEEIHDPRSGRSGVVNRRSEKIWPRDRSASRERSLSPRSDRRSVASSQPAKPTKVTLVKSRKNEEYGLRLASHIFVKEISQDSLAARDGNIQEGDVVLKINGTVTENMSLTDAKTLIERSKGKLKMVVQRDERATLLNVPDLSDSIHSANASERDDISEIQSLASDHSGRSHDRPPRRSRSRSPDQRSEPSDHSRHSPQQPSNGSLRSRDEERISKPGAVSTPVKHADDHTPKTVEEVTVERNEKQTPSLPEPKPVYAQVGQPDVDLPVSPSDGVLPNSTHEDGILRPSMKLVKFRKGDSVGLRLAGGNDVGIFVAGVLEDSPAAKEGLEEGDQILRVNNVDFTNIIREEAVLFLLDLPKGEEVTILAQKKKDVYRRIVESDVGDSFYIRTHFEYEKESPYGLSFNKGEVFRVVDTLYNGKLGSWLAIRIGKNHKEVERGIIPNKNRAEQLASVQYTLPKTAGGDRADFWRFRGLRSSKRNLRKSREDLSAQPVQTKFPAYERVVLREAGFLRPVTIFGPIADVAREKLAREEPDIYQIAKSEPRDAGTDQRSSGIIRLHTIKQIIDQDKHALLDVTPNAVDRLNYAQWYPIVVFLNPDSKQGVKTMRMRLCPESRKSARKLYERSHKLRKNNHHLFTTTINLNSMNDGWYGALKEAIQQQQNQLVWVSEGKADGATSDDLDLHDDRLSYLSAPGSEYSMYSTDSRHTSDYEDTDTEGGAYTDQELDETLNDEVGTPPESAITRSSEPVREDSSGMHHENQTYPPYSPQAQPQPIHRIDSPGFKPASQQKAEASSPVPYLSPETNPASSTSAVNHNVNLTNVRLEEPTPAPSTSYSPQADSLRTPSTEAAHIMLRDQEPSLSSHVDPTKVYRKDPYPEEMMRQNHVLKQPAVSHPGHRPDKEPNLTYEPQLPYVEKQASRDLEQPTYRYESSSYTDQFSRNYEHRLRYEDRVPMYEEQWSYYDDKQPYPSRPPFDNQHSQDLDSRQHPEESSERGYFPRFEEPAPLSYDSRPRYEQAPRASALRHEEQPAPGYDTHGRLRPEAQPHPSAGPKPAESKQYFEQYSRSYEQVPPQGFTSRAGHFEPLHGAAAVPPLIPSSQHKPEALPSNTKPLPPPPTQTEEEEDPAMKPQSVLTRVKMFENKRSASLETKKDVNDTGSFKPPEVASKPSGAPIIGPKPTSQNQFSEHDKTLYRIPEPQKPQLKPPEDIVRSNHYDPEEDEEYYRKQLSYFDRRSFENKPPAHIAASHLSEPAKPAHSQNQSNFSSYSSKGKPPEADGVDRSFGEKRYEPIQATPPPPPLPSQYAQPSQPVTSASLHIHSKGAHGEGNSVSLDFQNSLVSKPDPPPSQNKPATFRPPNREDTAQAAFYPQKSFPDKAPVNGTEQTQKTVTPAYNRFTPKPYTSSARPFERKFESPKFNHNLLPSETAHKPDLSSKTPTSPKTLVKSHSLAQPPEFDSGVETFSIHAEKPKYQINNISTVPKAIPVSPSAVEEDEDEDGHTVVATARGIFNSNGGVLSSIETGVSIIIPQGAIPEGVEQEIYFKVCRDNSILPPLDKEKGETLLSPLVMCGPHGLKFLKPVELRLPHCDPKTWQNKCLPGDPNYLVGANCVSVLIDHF
UniProt E2QYC9: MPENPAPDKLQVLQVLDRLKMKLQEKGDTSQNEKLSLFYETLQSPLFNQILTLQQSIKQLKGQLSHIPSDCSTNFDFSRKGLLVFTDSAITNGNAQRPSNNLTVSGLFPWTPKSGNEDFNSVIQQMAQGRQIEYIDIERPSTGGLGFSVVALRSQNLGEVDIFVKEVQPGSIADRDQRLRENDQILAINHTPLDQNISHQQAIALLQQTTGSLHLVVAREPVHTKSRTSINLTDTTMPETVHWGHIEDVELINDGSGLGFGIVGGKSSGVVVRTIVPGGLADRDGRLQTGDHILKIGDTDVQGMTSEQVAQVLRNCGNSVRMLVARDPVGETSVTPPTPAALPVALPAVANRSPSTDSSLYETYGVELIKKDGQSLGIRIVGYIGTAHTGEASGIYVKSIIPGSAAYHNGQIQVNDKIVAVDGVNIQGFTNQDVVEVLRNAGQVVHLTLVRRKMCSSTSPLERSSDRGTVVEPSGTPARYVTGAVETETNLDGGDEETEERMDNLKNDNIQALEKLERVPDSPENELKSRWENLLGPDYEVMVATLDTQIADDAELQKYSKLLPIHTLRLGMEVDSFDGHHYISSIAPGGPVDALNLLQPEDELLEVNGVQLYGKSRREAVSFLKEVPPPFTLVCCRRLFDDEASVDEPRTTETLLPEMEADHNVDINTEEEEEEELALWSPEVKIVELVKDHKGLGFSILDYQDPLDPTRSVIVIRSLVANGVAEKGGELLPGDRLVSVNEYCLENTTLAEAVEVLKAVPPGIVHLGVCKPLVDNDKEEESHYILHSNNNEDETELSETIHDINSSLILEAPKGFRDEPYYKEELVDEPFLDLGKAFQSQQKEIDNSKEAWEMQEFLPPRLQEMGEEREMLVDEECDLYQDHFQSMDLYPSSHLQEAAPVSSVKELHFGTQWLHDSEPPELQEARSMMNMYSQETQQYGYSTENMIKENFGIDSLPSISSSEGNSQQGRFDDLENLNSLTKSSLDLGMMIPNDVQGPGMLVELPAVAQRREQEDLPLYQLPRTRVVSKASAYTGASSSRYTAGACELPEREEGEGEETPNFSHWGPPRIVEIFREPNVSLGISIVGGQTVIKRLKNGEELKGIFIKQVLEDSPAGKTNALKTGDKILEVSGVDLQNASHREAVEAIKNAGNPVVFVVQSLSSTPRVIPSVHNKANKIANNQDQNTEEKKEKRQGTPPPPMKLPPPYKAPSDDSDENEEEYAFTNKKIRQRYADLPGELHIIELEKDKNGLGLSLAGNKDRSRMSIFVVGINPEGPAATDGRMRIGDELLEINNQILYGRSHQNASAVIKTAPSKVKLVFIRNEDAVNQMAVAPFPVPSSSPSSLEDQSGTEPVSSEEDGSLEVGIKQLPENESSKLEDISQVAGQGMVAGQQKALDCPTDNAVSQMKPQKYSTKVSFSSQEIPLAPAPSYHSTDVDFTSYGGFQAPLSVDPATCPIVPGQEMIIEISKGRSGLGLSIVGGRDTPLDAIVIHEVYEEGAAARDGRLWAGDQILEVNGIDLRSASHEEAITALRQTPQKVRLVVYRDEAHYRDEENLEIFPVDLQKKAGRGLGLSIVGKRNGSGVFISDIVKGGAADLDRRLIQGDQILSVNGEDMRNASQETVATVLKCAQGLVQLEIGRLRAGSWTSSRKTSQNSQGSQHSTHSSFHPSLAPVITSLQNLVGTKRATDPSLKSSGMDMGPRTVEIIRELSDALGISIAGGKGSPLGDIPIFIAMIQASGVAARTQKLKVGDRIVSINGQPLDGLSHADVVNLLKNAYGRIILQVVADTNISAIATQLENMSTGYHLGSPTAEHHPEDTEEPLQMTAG

Target: Dendra2-ZO1-APEX2 (UniProt Q07157)
Experiment: proximity labelling

Molecule: PATJ (from UniProt E2QYC9 1-1828)
- binding: binds

B1: claudin-4 (protein, UniProt A0A8C0N7E5 1-210)
chain: MASMGLQVMGIALAVLGWLGAILSCALPMWRVTAFIGSNIVTSQTIWEGLWMNCVVQSTGQMQCKVYDSLLALPQDLQAARALMVVSIILAALGVLLSVVGGKCTNCVEDESAKAKTMIVAGVVFLLAGLLVMVPASWTANNIIRDFYNPLVVSGQKREMGASLYVGWAASGLLLLGGALLCCNCPPRADKPYSAKYSAAARSAPASNYV
- binding: binds

B2: CGN (protein, UniProt A7YH32 1-1196)
chain: MEQASTMAEPRGPVDHGVQIRFITEPVGNAEMDTLRRGGRRPAKDARANTYGVAVRVQGIAGQPFVVLNSGEQGSDSFGVQIKGTNNRGPPGALSSDSELPESTYSHAKEFPARSQGSMSDEELGAHWNGRLLRSQSQASLKGPAPVSPSTRSTSLLQLAPEVASPGSTIDTAPLSSVDSLINKFDSRQGGQARGRTGRRMRTLPPEQRKRSQSLDNRLPRDTLDEREHQFPTHWTPSTKRDSHMGNSKQSSQNQGPLGGFSCSRQTQDWVLQSFEEPRGRAWDPGMLQFKSTPDLLRDQQETAPPGSVDHVKATIYSILREGSSETETSVRRKVNLVLEQMQPLVMTSGSAKGLTGQSELSQKVEELQQKLDEEVKKRPKLESSRLGLERQLQEKAEECSQLQELLERRKGEAQQSTKELQNMKLLVDQSERVRCGLEAQVKELQDKLKQAQEPEPAKEALMKDLLEARELLEEVLEGKQRMEEHLRLRERELTALKGALKEEVASRDQEVEHVRQQCQRDAEQLRRSIQDATQDHAALEVERQKMSTLVRELQKELEETSEETGHWQSMFQKNKDELRATKQELLQLRMEKEEIEEELGEKIEVLQRELGQARAGAADTRQMEELKKELCQTQKELKELKEEQQNQEVAGRHRERELEKQLKVEADRGQGLEQQNLQLQKTLQQLRQDCEEASKAQVAAEAEVAVLGQRRAAVEVTLRETQEENDEFRRRILGLEQQLKEARGLAEGGEVAEARLRDKVQRLEAEKQRLEEALNAAQEEEGSLAAAKRALEARLEEAQRGLARLGQEQLALNRALEEEGKQREALRRSKAELEEQKRLLDKTVCQLNKELEQIGNDSKQALQQLQAQLEDYKEKARREVADAQRQAKEWATEAEKNSGGLSRLQDETQRLRQALQASQADRDTARLDKELLAQRLQGLEQEAENKKRSQDDRARQLKGLEEKVSRLEAELDEERSTVELLTERVTRGRDQVDQLRSELMQERSARQDLECDKISLERQNKDLKSRLASSEGFQKPSASLSQLESQNQELQERLQAEEREKTVLQSTNRKLERRVKELSIQIDDERQHVNDQKDQLSLRVKALKRQVDEAEEEIERLDGLRKKAQRELEEQHEVNEQLQARIKTLEKDSWRKASRSAAESAQREGLSSDEEFDSVYDPSSIASLLTESNLQTSSC
- binding: binds

B3: ZO2 (protein, UniProt Q95168 1-1174)
chain: MEELIWEQYTVTLQKDSKRGFGIAVSGGRDNPHFENGETSIVISDVLPGGPADGLLQENDRVVMVNGTPMEDVLHSFAVQQLRKSGKIAAIVVKRPRKVQLAPPQGSLPVDEDDRAFEVMDEFDGRSARSGYSERSRRSSHGGRSRSWEDSPERGRPHERAWSQERERSRGRSLERGLDHDDDYRRPRERSRGRSLERGLDHDDDYGRPGERSHGMSTDRGYDRGYDRGYDRGYDRTYSPEAEYGRRTQPDARHAGSRSRSREHLRSRSPSPELRGRPDHAGQPDSDRPIGVLLMKSKANEEYGLRLGSQIFIKQMTRTALATKDGNLHEGDIILKINGTVTENMSLTDARKLIEKSRGKLQLVVLRDSKQTLINIPSLNDSDSEIEDISEIESNRSFSPEERRQQYSDYDYHSSNEKLKERPNSREDMQNRWSRMGATPTPFKSMGDIASVVGTENSKEPRYQEEPPAPQPKAAPRTFLRPSPEDEAIYGPNTKMVRFKKGDSVGLRLAGGNDVGIFVAGIQEGTSAEQEGLQEGDQILKVNTQDFRGLVREDAVLYLLEIPKGEMVTILAQSRADVYRDILACGRGDSFFIRSHFECEKETPQSLAFSRGEVFRVVDTLYDGKLGHWLAVRIGNELEKGLIPNKSRAEQMASVQNAQRDNAGDRADFWRMRGQRSGMKKNLRKSREDLTAAVSVSTKFPAYERVLLREAGFKRPVVLFGPIADIALEKLANELPDLFQTAKTEPKDAGSEKSSGVVRLNTVRQIIEQDKHALLDVTPKAVDLLNYTQWFPIVIFFNPDSRQGVKTMRQRLNPTSNKSSRKLYDQANKLKKTCAHLFTATINLNSANDSWFGSLKDTIQHQQGEAVWVSEGKMEGMDDDPEDRMSYLTAMGADYLSCDSRLISDFEDTDGEGGAYTDNELDEPAEEPLVSSITRSSEPVQHEESIRKPSPEPRAQMRRAASRDQLRDSSPPPAFKPEPPKAKTQNREESFDISRSHDYKSNPSAVAGNEVSGASTRSCPPPIAAKPSFGRSILKPSTPVPSPESEEVGEGSEEQEGAPKSVLGKVKIFEKMDHKARLQRMQELQEAQNARIEIAQKHPDIYAVPIKTHKPDPGLSQHTSSRPPEPQKGPSRLYQDPRGSYGSDAEEEEYRQQLSEHSKRGYYSQPSRYRDTEL
- binding: binds

B4: occludin (protein, UniProt Q28269 1-521)
chain: MSSRPFESPPPYRPDEFKPNHYAPSNDVYGGDMHVRPMLSQPAYSFYPEDEILHFYKWTSPPGVIRILSMLVIVMCIAIFGCVASTLAWDRGYGTGLMGGSIGYPYGSGFGSYGTGYGYGFGYGYGYGGYTDPRAAKGFLLAMVAFCFIAALVIFVTSVIRSDISRTRRYYLTVIILSAFLGVMMFIATIVYIMGVNPTAQASGSLYSSQIYAMCNQFYASTATGLYMDQYLYHYCVVDPQEAIAIVLGFMVIVAFALIIFFAVKTRRKMDRYDKSNILWDKEHIYDEQPPNVEEWVKNVSAGTQDMPPPPSDYVERVDSPMAYSSNGKVNDKRLYPESSYKSTPVPEVVQELPATSPADDFRQPRYSSSGHLEPPSKRAPSKGRTGRPKRLEQDHYETDYTTGGESCDELEEDWIREYPPITSDQQRQLYKRNFDTGLQEYKSLQAELDEINKELSRLDKELDDYREESEEYMAAADEYNRLKQVKGSPDYKNKRNYCKQLKSKLSHIKKMVGDYDRQKT
- binding: binds

Results are given in words; binding and its absence hold for the method and conditions named. In cells and extracts the contact can be indirect. Here binding means that the protein was enriched with, or labelled near, the bait; the list need not be complete.
